The values below come from article PMC6587807.

The chains behind the UniProt entries cited, without tags or fusion partners. Where a name states a change or a piece, a line headed by the entry shows the natural chain unless it says otherwise.
UniProt A0A1C9HJI3: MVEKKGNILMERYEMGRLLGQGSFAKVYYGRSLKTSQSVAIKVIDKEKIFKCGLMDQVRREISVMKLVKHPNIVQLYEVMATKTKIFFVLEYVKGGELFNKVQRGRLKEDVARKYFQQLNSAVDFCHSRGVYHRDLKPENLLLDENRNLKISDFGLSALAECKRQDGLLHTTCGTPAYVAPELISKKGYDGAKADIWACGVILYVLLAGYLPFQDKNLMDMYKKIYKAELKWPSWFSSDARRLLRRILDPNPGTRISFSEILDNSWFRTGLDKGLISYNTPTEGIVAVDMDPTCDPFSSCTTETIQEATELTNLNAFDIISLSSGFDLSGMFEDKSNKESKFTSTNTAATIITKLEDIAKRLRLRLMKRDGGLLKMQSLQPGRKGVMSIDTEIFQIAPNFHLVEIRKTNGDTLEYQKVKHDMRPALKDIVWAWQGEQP

No constants are given. Whether binding was seen depends on the method and setting. A result given as binding can be weak or reduced; the word gives no strength.

This test concerns the target TaNH2-GST (wheat (Triticum aestivum cv. Suwon11)). Briefly: pull-down; GST pull-down; equal amounts of GST-tagged TaNH2 proteins mixed with TaCIPK10-His, 4 °C, 2 h; Western blot with anti-His and anti-GST; both purified.

For the substance “TaCIPK10-His (from UniProt A0A1C9HJI3) (enzyme)”, the binding result is “binds”.
